PubChem BioAssay AID720710, VTT Finland | 2013
Test: 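siRNAs sensitising CCNE1-overexpressing U-2 OS cells to replication stress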 (primary screen). Cells: human U-2 OS bone cancer cells, parental and a cyclin E (CCNE1) overexpressing line. Reagent: single siRNA against human genes, 1 µM siRNA in the printed spot mix. Timing: 67 h. Challenge: half the arrays: hydroxyurea 2 mM for 16 h, then 3 h recovery; other arrays untreated. Read-out: 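EdU click signal imaged per DAPI-stained nucleus at 67 h; each spot divided by its subgrid median, then z-scored relative to non-targeting control spots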. Reading the numbers: EdU z-score, cyclin E line, hydroxyurea and EdU z-score, parental, hydroxyurea: higher = more DNA synthesis than non-targeting controls.
This is an unselected part of about 1,380 deposited reagents. 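One array per condition without replicates; hydroxyurea arrays received 2 mM for 16 h plus 3 h recovery.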 The numbers tell different reagents against one gene apart. Not all columns of the deposit are shown.

With knock-down of WRNIP1 (WRN helicase interacting protein 1) #1 the results were EdU z-score, cyclin E line, hydroxyurea -0.792; EdU z-score, parental, hydroxyurea -1.67.
WRNIP1 (WRN helicase interacting protein 1) #2 gave EdU z-score, cyclin E line, hydroxyurea -0.374; EdU z-score, parental, hydroxyurea -1.29.
With knock-down of TOP1 (DNA topoisomerase I) #1, the record shows EdU z-score, cyclin E line, hydroxyurea -0.953; EdU z-score, parental, hydroxyurea -8.45.
TOP1 (DNA topoisomerase I) #2 scored EdU z-score, cyclin E line, hydroxyurea 0.134; EdU z-score, parental, hydroxyurea -0.892.
For NCAPD2 (non-SMC condensin I complex subunit D2) #1, the values are EdU z-score, cyclin E line, hydroxyurea -0.237; EdU z-score, parental, hydroxyurea -0.334.
NCAPD2 (non-SMC condensin I complex subunit D2) #2 gave EdU z-score, cyclin E line, hydroxyurea 0.396; EdU z-score, parental, hydroxyurea 4.17.
After knock-down of KMT2D (lysine methyltransferase 2D) #1 the results were EdU z-score, cyclin E line, hydroxyurea -2.07; EdU z-score, parental, hydroxyurea -2.52.
Depletion of KMT2D (lysine methyltransferase 2D) #2 gave: EdU z-score, cyclin E line, hydroxyurea -2.05; EdU z-score, parental, hydroxyurea -1.
H4C13 (H4 clustered histone 13) #1 gave EdU z-score, cyclin E line, hydroxyurea -1.05; EdU z-score, parental, hydroxyurea -8.28.
With knock-down of H4C13 (H4 clustered histone 13) #2, the screen gave EdU z-score, cyclin E line, hydroxyurea 1.29; EdU z-score, parental, hydroxyurea 0.65.
CSNK1D (casein kinase 1 delta) #1 scored EdU z-score, cyclin E line, hydroxyurea -1.52; EdU z-score, parental, hydroxyurea -2.15.
CSNK1D (casein kinase 1 delta) #2 scored EdU z-score, cyclin E line, hydroxyurea -0.485; EdU z-score, parental, hydroxyurea -1.73.
CHRAC1 (chromatin accessibility complex subunit 1) #1 gave EdU z-score, cyclin E line, hydroxyurea 0.629; EdU z-score, parental, hydroxyurea -4.94.
Silencing of CHRAC1 (chromatin accessibility complex subunit 1) #2 gave: EdU z-score, cyclin E line, hydroxyurea 1.02; EdU z-score, parental, hydroxyurea 2.94.
With knock-down of XRCC3 (X-ray repair cross complementing 3) #1, the record shows EdU z-score, cyclin E line, hydroxyurea -1.03; EdU z-score, parental, hydroxyurea -4.7.
XRCC3 (X-ray repair cross complementing 3) #2 scored EdU z-score, cyclin E line, hydroxyurea -0.706; EdU z-score, parental, hydroxyurea 2.72.
With knock-down of MRPS9 (mitochondrial ribosomal protein S9) #1 the results were EdU z-score, cyclin E line, hydroxyurea -0.611; EdU z-score, parental, hydroxyurea 2.18.
MRPS9 (mitochondrial ribosomal protein S9) #2 scored EdU z-score, cyclin E line, hydroxyurea 0.231; EdU z-score, parental, hydroxyurea 3.24.
After knock-down of H2BC9 (H2B clustered histone 9) #1, the record shows EdU z-score, cyclin E line, hydroxyurea -1.83; EdU z-score, parental, hydroxyurea -3.35.
After knock-down of H2BC9 (H2B clustered histone 9) #2 the results were EdU z-score, cyclin E line, hydroxyurea -1.37; EdU z-score, parental, hydroxyurea -0.204.
After knock-down of ACTL6B (actin like 6B) #1, the record shows EdU z-score, cyclin E line, hydroxyurea -2.41; EdU z-score, parental, hydroxyurea -0.918.
For ACTL6B (actin like 6B) #2, the entry reads EdU z-score, cyclin E line, hydroxyurea 0.254; EdU z-score, parental, hydroxyurea -0.213.

Individual results from the list.
Result for XRCC3 (X-ray repair cross complementing 3) #2 in “EdU z-score, cyclin E line, hydroxyurea”: -0.706
Entry for NCAPD2 (non-SMC condensin I complex subunit D2) #2 under “EdU z-score, parental, hydroxyurea”: 4.17
